Results as given in publication PMC10761881.
No constants are given. Whether binding was seen depends on the method and setting. Binding seen in cells or lysates may run through a third protein. A result given as binding can be weak or reduced; the word gives no strength. Sequences can lack the tags named with a protein.

Target: Cka (epitope-tagged, co-immunoprecipitation in Drosophila cells) (Drosophila)
Assay: co-IP; Drosophila S2R+ cells (S2 cells in the legend of Fig. 4D) transfected with epitope-tagged proteins; treatments in some panels: dsRNA against Slmap, Fgop2 or Cka, co-expression of Tak1 or Tak1 S176A, 5Z-7-Oxozeaenol (2 μM, 3 h), LPS (10 μg/mL, 2 h, after 20-Hydroxyecdysone 1 μM, 48 h)

| Binder | binding |
| --- | --- |
| Tao-1 (epitope-tagged, co-immunoprecipitation in S2R+ cells) (protein, UniProt Q0KHQ5 1-1039) MPSARPGSLKDPEIADLFNKHDPEKIFEDLREIGHGSFGAVYYARCNLTREIVAIKKMSYTGKQSQEKWQDILKEIRFLRQLNHPNTIEYKGCYLRESTAWLVMEYCVGSASDIIEVHKKPLHEDEIAAICLGVLSGLSYLHSLGRIHRDIKAGNILLTDNGVVKLADFGSAAIKCPANSFVGTPYWMAPEVILAMDEGQYDGKVDVWSLGITCIELAERKPPYFNMNAMSALYHIAQNESPTLPKNDWSDAFCSFVELCLKKMPAERPSSAKLLTHAYVTRPRSDTVLLELIARTKSAVRELDNLNYRKMKKILMVDTCETESAVGDTDDQQDDHAGGDSSKSNSITSEHSIHSVGVSAASSQSSSSNSIPAAAQNHHHIAAHHHQQAASAAVAAAMHHHHHPHQQPPPSWPSGQQGQPVPPGAVSRNSSRHRNRPPLPNIMHSMNNNVTPTNSASVVPAPAPAPVLPPPISVLPHLSAMGHVGGGGTGTGGSGGGSPASGGPLADRIQPVQPRYLTTPAAQAAVYAASSASSQQAISNAVNDHGPNNFATIRTTSIVTKQQKEHMQEEMHEQMSGYKRMRREHQAHLVKLEEKCKVDMEAHKTALDKEYDTLLHNFTRDLDRLETKHQQDVERRAKQTSAAEKKLHKEITLKQENDRKVYDLNRKKEYKANKERWKRELSMDESTPKRQRDLTLQSQKDNLKQHEAQEEQRMLQAQKQYIELEMRKFKRKRMIMQHEHEDQQLRDELGKKEQQLQQAHAMLLKHHEKTQELEYRQQKSVHQLREEQINKQHDTELHNQKDYMDRIKKELVRKHAVELRQQPKSLKQKELQIRKQFRETCKTQTKQYKRYKAQVLQTTPKEQQKEVIKQLKEEKHRKLTLLGEQYEQSIADMFQSQSYKLDESQVIECQRTHEQLEYELEMLTAYQNKNKKQAQEQRDRERRELENRVSVRRGLLENKMDAELQQFNQERAERLRMKHEKHTKELEAFDNESIALGFSTLSLIEVSREAYADEEGSLSGSMISLAHSNSSTSFPAGSL | binds |
| Tak1 (Transforming growth factor-β-activated kinase 1), epitope-tagged (enzyme, UniProt Q9V3Q6 1-678) MATASLDALQAAYVDFSEITLREKVGHGSYGVVCKAVWRDKLVAVKEFFASAEQKDIEKEVKQLSRVKHPNIIALHGISSYQQATYLIMEFAEGGSLHNFLHGKVKPAYSLAHAMSWARQCAEGLAYLHAMTPKPLIHRDVKPLNLLLTNKGRNLKICDFGTVADKSTMMTNNRGSAAWMAPEVFEGSKYTEKCDIFSWAIVLWEVLSRKQPFKGIDNAYTIQWKIYKGERPPLLTTCPKRIEDLMTACWKTVPEDRPSMQYIVGVMHEIVKDYTGADKALEYTFVNQQIVTKESDGTVAAQPDSLSSQEGELSPSSTQLTPTTAANANVNAIAISKTTTSSMTENTSSTSSDITPTNSGQLDNNPLFYMVTNRWDAIPEEESNESRNDSFNLTSSAEATQRLETIRNGMILMACKPMEQLTLDVEANGFDLSPSESSSSSTNAKSDGRERLTVTDTKPVMMTTDLSNNNGGIHAHSNGLLSHANGWQARDEELQEQEHEQEIVNSLDVDVDPDEDENDGTEQSLAEILDPELQPEPPIPNDAESQLIYRDHRHMAKEYLSVDTNLYYAQDFKDKLIVQMDRTEREQKQELLRKMKDKEGLQSLYNNLQQQYASRQLAAGHHPQPHPHPHPNQLQHPHSHPPMHFLQDEGCGLLPGSVCGGSESVEEGWVVIPPHHNA | binds |
